Test results published in the supplement of paper PMC10398353.
Where “and” joins values, the source holds several entries; their conditions need not be identical. Identical values can stand only once. Counter-ions that a name gives are not always drawn. ± gives the standard deviation of the averaged measurements. Some of the results follow. The data scatter; read single values as rough.

Test system: Salmonella enterica serovar Typhimurium ST313 D23580
Experiment: normalized bacterial growth (OD600 20 h minus 0 h, interquartile-mean normalized) (fraction of plate interquartile mean); higher = more bacterial growth (less inhibition)
Conditions: LPM (pH 5.8, low phosphate, low Mg2+), concentration: 10 µM, temperature: 37 °C

| Structure (SMILES) | normalized bacterial growth |
| --- | --- |
| C[C@]12CCC(=O)C=C1CC[C@@H]1[C@@H]2C(=O)C[C@]2(C)C(=O)CC[C@@H]12 [Adrenosterone] | 0.823 |
| NC(=O)CN1CC(O)CC1=O (stereo not drawn) [Oxiracetam] | 1.03 |
| CC(C)[C@@]1(O)[C@@H](OC(=O)c2ccc[nH]2)[C@@]2(O)[C@@]3(C)C[C@]4(O)O[C@@]5([C@H](O)[C@@H](C)CC[C@]35O)[C@@]2(O)[C@@]14C | 1.41 |
| COc1ccn(C)c(=O)c1C#N [Ricinine] | 0.843 |
| NC(=O)c1ccc(OCC(O)CN2CC=C(c3ccc(F)cc3)CC2)cc1 (stereo not drawn) | 0.933 |
| CC(C)=CC1C(C(=O)OCc2cccc(Oc3ccccc3)c2)C1(C)C (stereo not drawn) | 1.04 |
| C[N+](C)(C)CC#CCN1CCCC1=O [Oxotremorine methiodide] | 1.31 |
| C[CH2][Hg][S]c1ccccc1C(=O)[O-].[Na+] | 0.128 |
| COc1ccc(CNC(=O)/C=C/c2ccc3[nH]cc(CCN(C)C)c3c2)cc1 | 0.685 |
| CC1(C)C(=O)C=C[C@]2(C)[C@H]3CC[C@@]4(C)[C@H](c5ccoc5)OC(=O)[C@H]5O[C@]54[C@]3(C)[C@H](O)C[C@@H]12 | 0.948 |
| ClC1=C(Cl)C2(Cl)C3C(Cl)C=CC3C1(Cl)C2(Cl)Cl (stereo not drawn) | 1.26 |
| O=C1C=C2C=C[C@@H]3C[C@@]2(O1)[C@H]1CCCCN31 | 1.04 |
| O=C1C=C2C=C[C@@H]3C[C@@]2(O1)[C@H]1CCCCN31 [Securinine] | 1.12 |
| CC1Cc2cc3c(cc2C(c2ccc(N)cc2)=NN1)OCO3 (stereo not drawn) | 1.24 |
| CC(=O)C1=C(O)[C@@H]2[C@H]3c4c[nH]c5cccc(c45)C[C@H]3C(C)(C)N2C1=O | 0.994 |
| CN1CCC(c2c[nH]c3ccc(O)cc23)CC1 | 1.04 |
| COc1ccc2[nH]c3c(c2c1)CCN=C3C [Methoxy-6-harmalan] | 0.705 |
| N#Cc1c(Cl)cccc1Cl | 0.903 |
| O[C@H]1[C@H]2[C@H](O)CCCN2C[C@H]1O | 0.914 |
| COc1cc([C@@H]2c3cc4c(cc3[C@H](O)[C@H]3COC(=O)[C@@H]23)OCO4)cc(OC)c1OC | 0.783 |
| CCCC(C)C1(CC)C(=O)NC(=S)NC1=O (stereo not drawn) | 1.22 |
| C/C=C(/C)C(=O)O[C@H]1CC[C@@]2(C)[C@@H]3CC[C@H]4[C@]5(O)C[C@H](O)[C@@]6(O)[C@@H](CN7C[C@@H](C)CC[C@H]7[C@@]6(C)O)[C@]5(O)C[C@@]42O[C@]13O | 0.866 ± 0.032 |
| O=c1ccc2c(O)c3ccoc3cc2o1 | 1.19 |
| ClC1=C(Cl)C2(Cl)C3C4CC(C5OC45)C3C1(Cl)C2(Cl)Cl (stereo not drawn) | 1.11 |
| CCCCCCC(C)(C)c1ccc([C@@H]2C[C@H](O)CC[C@H]2CCCO)c(O)c1 | 0.728 |

| Structure (SMILES) | normalized bacterial growth |
| --- | --- |
| CCCn1c(=O)c2[nH]c(C3CCCC3)nc2n(CCCOC(=O)c2ccc(S(=O)(=O)F)cc2)c1=O | 0.945 |
| CCOC(=O)c1cncn1[C@H](C)c1ccccc1 | 0.907 |
| COc1cc2ccc(=O)oc2c2ccoc12 | 0.909 |
| NCC1(CC(=O)O)CCCCC1 [Gabapentin] | 1.35 |
| NCC1(CC(=O)O)CCCCC1 | 1.1 |
| O=c1cccc2n1C[C@@H]1CNC[C@H]2C1 | 1.19 and 1.01 |
| CC[C@@H](C)C(=O)O[C@H]1[C@H](O)[C@H]2[C@@H](CN3C[C@@H](C)CC[C@H]3[C@@]2(C)O)[C@@H]2C[C@]34O[C@]5(O)[C@@H](OC(=O)[C@@](C)(O)CC)CC[C@@]3(C)[C@@H]5[C@@H](OC(C)=O)[C@@H](OC(C)=O)[C@H]4[C@@]21O | 0.532 |
| CC[C@@H](C)C(=O)O[C@H]1[C@H](O)[C@H]2[C@@H](CN3C[C@@H](C)CC[C@H]3[C@@]2(C)O)[C@@H]2C[C@]34O[C@]5(O)[C@@H](OC(=O)[C@@](C)(O)CC)CC[C@@]3(C)[C@@H]5[C@@H](OC(C)=O)[C@@H](OC(C)=O)[C@H]4[C@@]21O [Protoveratrine A] | 1.12 |
| COC[C@H]1OC(=O)c2coc3c2[C@@]1(C)C1=C(C3=O)C2CCC(=O)[C@@]2(C)C[C@H]1OC(C)=O (stereo partly drawn) [Wortmannin from Penicillium funiculosum] | 1.15 |
| O=C(CCCN1CCC2(CC1)C(=O)NCN2c1ccccc1)c1ccc(F)cc1 [Spiperone hydrochloride] | 0.867 |
| O=C(CCCN1CCC2(CC1)C(=O)NCN2c1ccccc1)c1ccc(F)cc1 | 0.921 |
| CC(C)C[C@H]1C(=O)N2CCC[C@H]2[C@]2(O)O[C@](NC(=O)[C@@H]3C=C4c5cccc6[nH]cc(c56)C[C@H]4N(C)C3)(C(C)C)C(=O)N12 [Ergocryptine-alpha] | 0.672 |
| CC1=CCCC2C1(C)CCC(C)C2(C)CC/C(C)=C/Cn1c[n+](C)c2c(N)ncnc21 (stereo not drawn) [AGELASINE (stereochemistry of diterpene unknown)] | 0.902 |
| CC1(C)C(=O)[C@@H]2O[C@@H]2[C@@]2(C)C1C[C@@H](O)[C@]1(C)C2CC[C@@]2(C)[C@H](c3ccoc3)OC(=O)C3OC321 (stereo partly drawn) ["1,2alpha-EPOXYDEACETOXYDIHYDROGEDUNIN"] | 0.74 |
| O=[N+]([O-])O[C@H]1CO[C@H]2[C@@H]1OC[C@H]2O[N+](=O)[O-] | 0.879 |
| CCN1C[C@]2(COC)CC[C@H](O)[C@]34C1[C@@](O)([C@@H](OC)[C@H]23)[C@@]1(O)C[C@H](OC)[C@H]2C[C@@H]4[C@@H]1[C@H]2OC [Delsoline] | 1.14 |
| CCN1C[C@]2(COC)CC[C@H](OC)[C@]34C5C[C@@H]6[C@@H](OC)C[C@@]7(OCO[C@@]7(C13)[C@@H](O)C24)C5[C@H]6OC (stereo partly drawn) [Delcorine] | 1.25 |
| CCN1C[C@]2(COC)CC[C@H](OC)[C@]34C5C[C@@H]6[C@@H](OC)C[C@@]7(OCO[C@@]7(C13)[C@@H](O)C24)C5[C@H]6OC (stereo partly drawn) | 1.03 |
| CC(C)Oc1cccnc1N(C)C1CCN(Cc2ccccc2)CC1 | 1.14 |
| c1cncc([C@@H]2CCCCN2)c1 | 1.18 and 0.994 |
| c1cncc([C@@H]2CCCCN2)c1 [Anabasine] | 0.957 |
| COc1cc(C(O)CN)ccc1O (stereo not drawn) [()-Normetanephrine hydrochloride] | 1.05 |
| NC(Cc1cc(O)c(O)cc1O)C(=O)O (racemic) [6-Hydroxy-DL-DOPA] | 1.14 |
| CC(=O)O[C@H]1C(=O)[C@@]2(C)[C@H]([C@H](OC(=O)c3ccccc3)[C@]3(O)C[C@H](O)C(C)=C1C3(C)C)[C@]1(OC(C)=O)CO[C@@H]1C[C@@H]2O | 0.935 ± 0.11 |
| CC(C)(C#N)O[C@@H]1O[C@H](CO)[C@@H](O)[C@H](O)[C@H]1O | 1.01 |

| Structure (SMILES) | normalized bacterial growth |
| --- | --- |
| CC(C)(O)[C@@H]1[C@H]2OC(=O)[C@@H]1[C@]1(O)C[C@H]3O[C@]34C(=O)O[C@H]2[C@]14C | 0.978 |
| O=c1[nH]oc2c1CCNC2 [THIP hydrochloride] | 1.01 |
| C=C(C)[C@H]1Cc2c(ccc3c(=O)c4c(oc23)COc2cc(OC)c(OC)cc2-4)O1 | 0.925 |
| COc1ccc2c(c1O)-c1cccc3c1[C@@H](C2)N(C)CC3 [R(-)-Apocodeine hydrochloride] | 1.04 |
| CCC(C)C(=O)OC1CC2(C)C(c3ccoc3)OC(=O)CC23OC2(C)OC34C(OC(=O)C(C)C)C3(O)C(OC(=O)C5(C)OC5C)C5(C)CC3(O)C(C)(C5CC(=O)OC)C14O2 (stereo not drawn) | 0.845 |
| C[N+]1(C)CCc2cc3c(cc2[C@H]1[C@@H]1OC(=O)c2c1ccc1c2OCO1)OCO3 | 0.793 |
| C[N+]1(C)CCc2cc3c(cc2[C@H]1[C@@H]1OC(=O)c2c1ccc1c2OCO1)OCO3 ["(-)-Bicuculline methbromide, 1(S), 9(R)"] | 0.984 |
| C=CCc1cc(OC)c2c(c1OC)OCO2 | 1.1 |
| NC(CCP(=O)(O)O)C(=O)O (stereo not drawn) [()-2-Amino-4-phosphonobutyric acid] | 0.963 |
| C[N+]1(C)[C@@H]2CC(OC(=O)[C@H](CO)c3ccccc3)C[C@H]1[C@@H]1O[C@@H]12 (single isomer, unassigned; (-)) [(-)-Scopolamine methyl nitrate] | 1.1 |
| COc1cc2c(cc1OC)[C@@H]1C(=O)c3ccc4c(c3O[C@@H]1CO2)CC(C(C)C)O4 (stereo partly drawn) | 0.783 |
| NC(N)=Nc1ccc2[nH]c3c(c2c1)C[C@@]1(O)[C@H]2Cc4ccc(O)c5c4[C@@]1(CCN2CC1CC1)[C@H]3O5 [Guanidinyl-naltrindole di-trifluoroacetate] | 0.104 |
| CCOC(=O)c1ncn2c1[C@@H]1CCCN1C(=O)c1cc(OC)ccc1-2 | 1.11 |
| CCC1(C2=NCCN2)Cc2ccccc2O1 (stereo not drawn) [Efaroxan hydrochloride] | 1.08 |
| CC[C@@H](CO)NC(=O)[C@@H]1C=C2c3cccc4[nH]cc(c34)C[C@H]2N(C)C1 [Methylergonovine maleate] | 1.01 |
| CC[C@@H](CO)NC(=O)[C@@H]1C=C2c3cccc4[nH]cc(c34)C[C@H]2N(C)C1 | 0.821 |
| C/C(=C/C=C/[C@@H](C)C(=O)O)[C@H]1CN[C@H](C(=O)O)[C@H]1CC(=O)O | 1.15 |
| COc1ccc2c(c1OC)C(=O)O[C@@H]2[C@H]1c2cc3c(cc2CCN1C)OCO3 [Hydrastine hydrochloride] | 0.893 |
| O=[N+]([O-])c1ccc(O[C@@H]2O[C@H](CO)[C@@H](O)[C@H](O)[C@H]2F)c([N+](=O)[O-])c1 ["2,4-Dinitrophenyl 2-fluoro-2-deoxy-beta-D-glucopyranoside"] | 1.25 |
| C[N+]12CC[C@@]34c5ccccc5N5C(=O)C[C@@H]6OCC=C(C1)[C@H](C[C@@H]32)[C@@H]6[C@H]54 (stereo partly drawn) | 1.11 |
| O=C(O)c1nn(Cc2ccc(Cl)cc2Cl)c2ccccc12 [Lonidamine] | 0.949 |
| CC(C)(C)c1cc(C=C(C#N)C#N)cc(C(C)(C)C)c1O [Tyrphostin A9] | 0.975 |
| CN1[C@@H]2CC[C@H]1C[C@@H](OC(=O)c1cc(Cl)cc(Cl)c1)C2 ["3-Tropanyl-3,5-dichlorobenzoate"] | 0.932 |
